Assay results from article PMC13571239.
Results are given in words; binding and its absence hold for the method and conditions named. For some of these results: Binding seen in cells or lysates may run through a third protein. Some binding calls cover weakened binding; strength is not graded here. For some of these results: Tags and fused reporters may be left off the sequences shown.

Chains of the proteins cited; added tags and fusions are not shown. Lines headed by an entry give the natural chain unless they say otherwise; changes in a name come on top. Residues count along the entry.
UniProt P25705, residues 44-553: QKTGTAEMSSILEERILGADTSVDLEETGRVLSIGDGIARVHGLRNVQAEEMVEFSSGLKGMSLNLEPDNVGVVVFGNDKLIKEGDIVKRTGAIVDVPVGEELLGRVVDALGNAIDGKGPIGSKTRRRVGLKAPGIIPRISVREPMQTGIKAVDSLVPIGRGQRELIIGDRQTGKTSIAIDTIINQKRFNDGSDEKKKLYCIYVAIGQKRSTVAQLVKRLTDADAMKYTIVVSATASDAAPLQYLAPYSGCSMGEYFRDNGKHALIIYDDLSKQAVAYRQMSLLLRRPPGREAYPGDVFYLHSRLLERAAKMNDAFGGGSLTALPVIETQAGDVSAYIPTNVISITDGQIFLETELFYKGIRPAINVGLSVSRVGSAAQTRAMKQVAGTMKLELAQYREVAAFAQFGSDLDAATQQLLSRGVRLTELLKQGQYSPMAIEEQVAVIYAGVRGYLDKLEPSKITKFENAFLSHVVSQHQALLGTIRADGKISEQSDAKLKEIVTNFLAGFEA

How the values were obtained:
[1] = target: T1, DDIT4L (GST pull-down, purified protein interaction experiment and peptide experiment, Fig. S7C, S7D, S7G, S7H) (UniProt Q96D03); assay: pull-down; GST pull-down (Fig. S7C, S7G); which partner carried GST is not told
T1 sequence: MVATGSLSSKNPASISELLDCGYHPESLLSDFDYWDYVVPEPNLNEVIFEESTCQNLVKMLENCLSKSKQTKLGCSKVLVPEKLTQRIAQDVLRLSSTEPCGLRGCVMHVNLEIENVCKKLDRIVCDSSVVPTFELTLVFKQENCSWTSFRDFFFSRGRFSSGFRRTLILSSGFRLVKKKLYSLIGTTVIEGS

[2] = target: T1, DDIT4L (GST pull-down, purified protein interaction experiment and peptide experiment, Fig. S7C, S7D, S7G, S7H); assay: purified protein interaction experiment; purified proteins (Fig. S7D); both purified
[3] = target: T2, DDIT4L (in GBM primary cells, Fig. S7B) (UniProt Q96D03); assay: co-IP; in GBM primary cells (Fig. S7B)
T2 sequence: T1 sequence

| Substance | binding [1] | binding [2] | binding [3] |
| --- | --- | --- | --- |
| ATP5A (GST pull-down, purified protein interaction experiment and peptide experiment, Fig. S7C, S7D, S7G, S7H) (from UniProt P25705 44-553) | binds | binds |  |
| ATP5A (in GBM primary cells, Fig. S7B) (from UniProt P25705 44-553) |  |  | binds |
| ATP5B (in GBM primary cells, Fig. S7B) (from UniProt P06576 48-529) |  |  | binds |
